The source of these data is publication PMC8487067.

Protein sequences, listed by entry. Tags and fused reporters are not part of them.
UniProt Q9UM11: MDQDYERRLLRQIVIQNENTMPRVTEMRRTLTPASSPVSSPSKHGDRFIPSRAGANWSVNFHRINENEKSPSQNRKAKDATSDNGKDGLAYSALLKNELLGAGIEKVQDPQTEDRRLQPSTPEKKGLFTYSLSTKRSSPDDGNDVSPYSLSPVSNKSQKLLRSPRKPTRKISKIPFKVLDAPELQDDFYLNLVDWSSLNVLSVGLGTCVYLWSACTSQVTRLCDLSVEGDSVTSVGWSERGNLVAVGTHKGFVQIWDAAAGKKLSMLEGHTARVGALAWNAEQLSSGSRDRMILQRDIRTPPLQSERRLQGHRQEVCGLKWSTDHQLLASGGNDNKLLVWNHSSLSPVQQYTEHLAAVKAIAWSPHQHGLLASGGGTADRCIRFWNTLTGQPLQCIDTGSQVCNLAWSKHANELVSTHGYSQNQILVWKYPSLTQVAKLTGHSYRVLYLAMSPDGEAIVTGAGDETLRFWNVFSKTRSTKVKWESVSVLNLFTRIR
UniProt Q96GD4: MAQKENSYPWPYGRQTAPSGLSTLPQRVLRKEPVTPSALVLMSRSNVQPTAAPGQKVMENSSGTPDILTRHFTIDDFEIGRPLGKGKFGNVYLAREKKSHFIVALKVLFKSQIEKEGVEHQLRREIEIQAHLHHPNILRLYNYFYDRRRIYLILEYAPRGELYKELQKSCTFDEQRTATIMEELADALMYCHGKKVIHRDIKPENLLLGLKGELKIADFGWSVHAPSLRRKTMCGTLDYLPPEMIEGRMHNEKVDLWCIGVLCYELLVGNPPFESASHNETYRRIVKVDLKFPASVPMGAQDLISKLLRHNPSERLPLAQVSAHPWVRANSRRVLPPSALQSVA

In one test the target is GST-CDH1 (UniProt Q9UM11). Description: pull-down; purified GST fusion (100 ng of GST-USP37) mixed with 10 μl of in vitro translated protein on ice for 1 h, diluted with TBST, glutathione beads 1 h at 4 °C, four washes with TBST, immunoblot; only the target purified. For orientation: Immunoblotting shows a protein as a band on a membrane.
The target in test [1] is T1, recombinant glutathione-S-transferase (GST)-USP37 (UniProt Q86T82).
T1 sequence: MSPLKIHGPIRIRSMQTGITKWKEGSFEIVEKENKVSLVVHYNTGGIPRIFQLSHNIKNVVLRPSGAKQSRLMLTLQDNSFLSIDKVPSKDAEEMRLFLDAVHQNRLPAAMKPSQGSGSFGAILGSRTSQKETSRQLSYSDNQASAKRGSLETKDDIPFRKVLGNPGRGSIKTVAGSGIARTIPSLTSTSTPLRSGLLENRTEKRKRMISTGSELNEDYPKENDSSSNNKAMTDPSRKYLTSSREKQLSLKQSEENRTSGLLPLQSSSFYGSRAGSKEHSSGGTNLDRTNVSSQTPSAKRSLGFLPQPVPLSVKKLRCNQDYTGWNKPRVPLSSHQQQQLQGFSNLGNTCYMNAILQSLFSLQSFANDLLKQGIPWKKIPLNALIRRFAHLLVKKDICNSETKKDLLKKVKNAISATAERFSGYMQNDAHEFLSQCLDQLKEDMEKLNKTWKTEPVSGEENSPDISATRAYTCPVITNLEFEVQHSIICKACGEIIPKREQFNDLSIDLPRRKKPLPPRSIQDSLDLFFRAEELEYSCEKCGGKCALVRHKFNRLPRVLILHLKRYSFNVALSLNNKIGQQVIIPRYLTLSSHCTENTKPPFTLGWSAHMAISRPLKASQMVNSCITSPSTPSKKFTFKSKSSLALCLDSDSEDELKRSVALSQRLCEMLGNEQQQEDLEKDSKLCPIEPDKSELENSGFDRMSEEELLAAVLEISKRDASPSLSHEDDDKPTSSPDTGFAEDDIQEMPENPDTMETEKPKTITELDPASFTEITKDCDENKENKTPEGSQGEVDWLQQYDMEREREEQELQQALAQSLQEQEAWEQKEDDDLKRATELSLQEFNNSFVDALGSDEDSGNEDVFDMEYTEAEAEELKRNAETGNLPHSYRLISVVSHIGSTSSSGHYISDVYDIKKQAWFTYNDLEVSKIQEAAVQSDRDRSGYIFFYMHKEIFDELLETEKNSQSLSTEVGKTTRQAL
The test can be described thus: condition: 100 ng of GST-USP37 with 10 μl of in vitro translated protein; pull-down; purified GST fusion (100 ng of GST-USP37) mixed with 10 μl of in vitro translated protein on ice for 1 h, diluted with TBST, glutathione beads 1 h at 4 °C, four washes with TBST, immunoblot; only the target ….

Results are given in words; binding and its absence hold for the method and conditions named. Binding seen in cells or lysates may run through a third protein. Some entries that bind do so weakly or less than the wild type. For some assays here: Sequences can lack the tags named with a protein.

In the case of “in vitro translated MYC-AURKB (from UniProt Q96GD4 1-344) (enzyme)”, the binding entry in the test with GST-CDH1 is on record as “binds”; in test [1] it was “no binding”.
